# Inconclusive results, whose numbers are uncertain, are shown with a selection of clear calls. A potency beside an inconclusive call is a rough fit, not a confirmed value. The source made the active and inactive calls. Calls follow the shape of the full dose curve.
# Chains of the proteins cited; added tags and fusions are not shown. Lines headed by an entry give the natural chain unless they say otherwise; changes in a name come on top.
# UniProt P19793: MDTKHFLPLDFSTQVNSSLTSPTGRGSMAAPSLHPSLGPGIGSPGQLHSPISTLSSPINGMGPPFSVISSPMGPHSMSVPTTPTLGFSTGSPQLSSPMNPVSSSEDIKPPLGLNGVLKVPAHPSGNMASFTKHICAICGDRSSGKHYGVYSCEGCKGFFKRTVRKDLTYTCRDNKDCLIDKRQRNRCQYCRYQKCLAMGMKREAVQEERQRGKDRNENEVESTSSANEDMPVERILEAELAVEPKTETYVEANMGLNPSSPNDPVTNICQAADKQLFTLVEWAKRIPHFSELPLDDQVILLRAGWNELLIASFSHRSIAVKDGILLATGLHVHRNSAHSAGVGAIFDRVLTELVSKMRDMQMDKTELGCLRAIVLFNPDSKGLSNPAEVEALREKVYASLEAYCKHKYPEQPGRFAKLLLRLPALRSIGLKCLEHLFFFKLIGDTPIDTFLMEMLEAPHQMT
# Biological target: Retinoic acid receptor RXR-alpha (Homo sapiens) (UniProt P19793)
# Test: qHTS assay to identify small molecule agonists of the RXR signaling pathway (AID 1159527); also: nearly all actives have a fitted effect of over 35% in size
# Settings: HEK293T RXRa-UAS-bla, beta-lactamase ratio, 16 h; activation: at 76.8 µM (top of the series) unless noted
# Summary of the method: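 Cells plated at 2,000/well, rested 5 hr at 37 C, pin-dosed with DMSO compound solutions, incubated 16 hr, then loaded with B/G FRET substrate for 2 hr at RT before dual-emission fluorescence reading.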
# % is scaled to controls: 0 for no effect and ±100 for the full control effect; potency is read from the fitted curve at half-maximal effect.
SMILES,Potency,activation
CCOc1ccccc1N,inconclusive: 3.86 µM,
CCCNC(C)(C)COC(=O)c1ccccc1,,inactive: 6.08% [at 35.3 µM]
Cc1c[nH]c(=O)[nH]c1=O,,inconclusive: -1.79%
O=[N+]([O-])c1ccc(/C=N\O)o1,,inactive: -9.47% [at 35.3 µM]
CC(=O)OCC(=O)[C@@]1(O)CC[C@H]2[C@@H]3CCC4=CC(=O)C=C[C@]4(C)[C@@]3(F)[C@@H](O)C[C@@]21C,,inconclusive: 6.44% [at 35.3 µM]
Oc1ccc(C(O)CNCCCCCCNCC(O)c2ccc(O)c(O)c2)cc1O (stereo not given),,inconclusive: 6.31% [at 35.3 µM]
Cc1ccc(C2OC[C@@H]3OC(c4ccc(C)cc4)O[C@H]([C@H](O)CO)[C@@H]3O2)cc1 (stereo not given in full),,inactive: -5.61%
CC(C)(O)CCCC1=CCC(C=O)CC1 (stereo not given),,inactive: -11.1%
CCOC(/C=C(\C)CCC=C(C)C)OCC,,inactive: 5.05%
CC(=O)c1ccc(C)cc1,,inactive: 4%
CC(C)C(=O)C(C)C,"inconclusive: 21.9 µM [activator, partial curve]",
OC[C@@H](O)C(O)[C@@H](O)CO (stereo not given in full),active: 1.57 µM,
CC(C)c1nnc2ccc(-c3ocnc3-c3cc(F)ccc3F)cn12,"inconclusive: 4.9 µM [activator, full curve]",
C[C@@H]1O[C@@H](O[C@@H]2[C@@H](O)[C@H](OCCc3ccc(O)c(O)c3)O[C@H](CO[C@@H]3O[C@H](CO)[C@@H](O)[C@H](O)[C@H]3O)[C@H]2OC(=O)/C=C/c2ccc(O)c(O)c2)[C@H](O)[C@H](O)[C@H]1O,,inactive: 0.621%
CC(C)(Oc1ccc(C2CC2(Cl)Cl)cc1)C(=O)O (stereo not given),,inconclusive: 12.3%

# 2 of these compounds in another layout.
SMILES	Potency	activation
C[C@@H]1O[C@@H](O[C@@H]2[C@@H](O)[C@H](OCCc3ccc(O)c(O)c3)O[C@H](CO[C@@H]3O[C@H](CO)[C@@H](O)[C@H](O)[C@H]3O)[C@H]2OC(=O)/C=C/c2ccc(O)c(O)c2)[C@H](O)[C@H](O)[C@H]1O		inactive: 0.621%
CC(C)(Oc1ccc(C2CC2(Cl)Cl)cc1)C(=O)O (stereo not given)		inconclusive: 12.3%
